# Melanoma cell counts after drug treatment

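Human melanoma cell lines in 1,536-well plates were treated with a pair of drugs for 72 h, then fixed, stained and imaged. Each value is the count of nuclei relative to DMSO-treated wells, in %, so that 100 equals the control. Every drug was used at one fixed concentration, the lower of two screened (a fifth of the higher). The file gives one value for each pair and line, without errors, so small differences may be noise.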 An unselected part of the screen is shown.

Compounds and concentrations:
fingolimod: CCCCCCCCc1ccc(CCC(N)(CO)CO)cc1 at 2 µM
tozasertib: Cc1cc(Nc2cc(N3CCN(C)CC3)nc(Sc3ccc(NC(=O)C4CC4)cc3)n2)n[nH]1 at 0.006 µM
cisplatin: N.N.[Cl][Pt][Cl] at 1.6 µM
CX-4945: O=C(O)c1ccc2c(c1)nc(Nc1cccc(Cl)c1)c1ccncc12 at 0.4 µM
KU-55933: O=c1cc(-c2cccc3c2Sc2ccccc2S3)oc(N2CCOCC2)c1 at 1 µM
LFM-A13: C/C(O)=C(\C#N)C(=O)Nc1cc(Br)ccc1Br at 2 µM
PD173074: CCN(CC)CCCCNc1ncc2cc(-c3cc(OC)cc(OC)c3)c(NC(=O)NC(C)(C)C)nc2n1 at 0.1 µM
RKI-983: C[C@@H](N)c1ccc(C(=O)Nc2ccnc3[nH]ccc23)cc1 at 0.4 µM
selumetinib: Cn1cnc2c(F)c(Nc3ccc(Br)cc3Cl)c(C(=O)NOCCO)cc21 at 0.015 µM
BI-78D3: O=c1[nH]nc(Sc2ncc([N+](=O)[O-])s2)n1-c1ccc2c(c1)OCCO2 at 0.2 µM
lapatinib: CS(=O)(=O)CCNCc1ccc(-c2ccc3ncnc(Nc4ccc(OCc5cccc(F)c5)c(Cl)c4)c3c2)o1 at 0.8 µM
decitabine: Nc1ncn([C@H]2C[C@H](O)[C@@H](CO)O2)c(=O)n1 at 0.1 µM
nilutamide: CC1(C)NC(=O)N(c2ccc([N+](=O)[O-])c(C(F)(F)F)c2)C1=O at 1 µM
pioglitazone: CCc1ccc(CCOc2ccc(CC3SC(=O)NC3=O)cc2)nc1 (stereo unspecified) at 2 µM
NVP-BEZ235: Cn1c(=O)n(-c2ccc(C(C)(C)C#N)cc2)c2c3cc(-c4cnc5ccccc5c4)ccc3ncc21 at 0.004 µM
GW0742: Cc1cc(SCc2sc(-c3ccc(C(F)(F)F)c(F)c3)nc2C)ccc1OCC(=O)O at 2 µM

| Drugs | COLO 792 |
|---|---|
| CX-4945 and lapatinib | 82.7 |
| CX-4945 and LFM-A13 | 90.2 |
| fingolimod and NVP-BEZ235 | 76.8 |
| PD173074 and decitabine | 65.4 |
| BI-78D3 and NVP-BEZ235 | 85.0 |
| cisplatin and selumetinib | 78.1 |
| nilutamide and KU-55933 | 111 |
| NVP-BEZ235 and CX-4945 | 78.0 |
| KU-55933 and LFM-A13 | 80.4 |
| KU-55933 and GW0742 | 96.2 |
| decitabine and nilutamide | 94.0 |
| CX-4945 and decitabine | 87.2 |
| decitabine and pioglitazone | 91.0 |
| KU-55933 and NVP-BEZ235 | 79.2 |
| NVP-BEZ235 and tozasertib | 97.0 |
| tozasertib and RKI-983 | 106 |

Values as published with doi:10.1371/journal.pone.0140310, rounded.